This is an account of results in publication PMC9332509.

The chains behind the UniProt entries cited, without tags or fusion partners.
UniProt O95817: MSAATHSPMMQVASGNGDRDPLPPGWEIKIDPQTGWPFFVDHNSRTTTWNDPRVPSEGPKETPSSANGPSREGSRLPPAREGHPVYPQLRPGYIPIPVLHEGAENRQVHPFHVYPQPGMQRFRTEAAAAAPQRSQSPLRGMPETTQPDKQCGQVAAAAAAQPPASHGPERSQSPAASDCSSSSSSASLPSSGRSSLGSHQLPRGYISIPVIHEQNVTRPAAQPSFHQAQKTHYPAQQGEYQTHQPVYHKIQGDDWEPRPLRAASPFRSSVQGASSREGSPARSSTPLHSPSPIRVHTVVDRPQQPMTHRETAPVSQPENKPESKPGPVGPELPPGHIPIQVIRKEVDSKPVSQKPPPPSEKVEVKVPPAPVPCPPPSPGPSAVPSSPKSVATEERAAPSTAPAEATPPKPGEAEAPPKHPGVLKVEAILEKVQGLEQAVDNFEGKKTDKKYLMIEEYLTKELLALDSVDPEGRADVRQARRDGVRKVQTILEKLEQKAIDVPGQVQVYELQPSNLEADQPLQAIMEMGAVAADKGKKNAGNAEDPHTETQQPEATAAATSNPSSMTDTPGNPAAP

These are yes or no findings as the source states them, for the method shown. Binding seen in cells or lysates may run through a third protein. Some entries that bind do so weakly or less than the wild type.

The target in the assay is BAG3 (B cell lymphoma 2-associated athanogene) (human (endogenous in HUVECs)) (UniProt O95817). The assay can be described thus: co-IP; HUVEC extracts immunoprecipitated with immobilised anti-BAG3 antibody (10 ug, Co-IP kit), blots probed with anti-HSP70 or anti-HSPB8; endogenous proteins.

B1: HSPB8 (protein, UniProt Q9UJY1 1-196)
chain: MADGQMPFSCHYPSRLRRDPFRDSPLSSRLLDDGFGMDPFPDDLTASWPDWALPRLSSAWPGTLRSGMVPRGPTATARFGVPAEGRTPPPFPGEPWKVCVNVHSFKPEELMVKTKDGYVEVSGKHEEKQQEGGIVSKNFTKKIQLPAEVDPVTVFASLSPEGLLIIEAPQVPPYSTFGESSFNNELPQDSQEVTCT
In the case of B1, the binding entry is on record as “binds”.
